Measurements published in PMC11022108.
No constants are given. Whether binding was seen depends on the method and setting. In cells and extracts the contact can be indirect. Some results given as binding are weak or reduced against the parent protein; the word gives no strength. Tags and fused reporters may be left off the sequences shown.

Molecular target: T1, peroxiredoxin PRXIIB fused to eYFP (Arabidopsis thaliana) (UniProt Q9XEX2)
T1 sequence: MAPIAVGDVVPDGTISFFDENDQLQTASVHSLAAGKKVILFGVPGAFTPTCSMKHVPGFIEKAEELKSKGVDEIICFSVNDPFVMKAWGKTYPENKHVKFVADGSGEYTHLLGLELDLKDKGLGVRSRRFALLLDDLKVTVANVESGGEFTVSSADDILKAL
Test: FRET or BRET; FRET between mTurquoise2 (donor) and eYFP (acceptor) by sensitized emission in transfected A. thaliana leaf protoplasts; cells untreated, reduced with 1 mM DTT for 30 min, or first reduced and then oxidized with 5 mM H2O2 for 30 min

B1: cytosolic malate dehydrogenase 1 (MDH1) fused to a fluorescent protein (enzyme, UniProt P93819 1-332)
chain: MAKEPVRVLVTGAAGQIGYALVPMIARGIMLGADQPVILHMLDIPPAAEALNGVKMELIDAAFPLLKGVVATTDAVEGCTGVNVAVMVGGFPRKEGMERKDVMSKNVSIYKSQAAALEKHAAPNCKVLVVANPANTNALILKEFAPSIPEKNISCLTRLDHNRALGQISERLSVPVSDVKNVIIWGNHSSSQYPDVNHAKVQTSSGEKPVRELVKDDAWLDGEFISTVQQRGAAIIKARKLSSALSAASSACDHIRDWVLGTPEGTFVSMGVYSDGSYSVPSGLIYSFPVTCRNGDWSIVQGLPIDEVSRKKMDLTAEELKEEKDLAYSCLS
For B1, the binding was “binds”.
